From PubChem BioAssay AID624291 (National Center for Advancing Translational Sciences (NCATS), 2012)
In all, about 350,000 compounds went through this assay and about 220 (0.063%) were called active. This list was built around the results that the source calls inconclusive (neither active nor inactive); the mix of calls is not that of the screen. Calls come from the whole dose curve; as a rule, active = well fitted activation curve with a large enough effect; inconclusive = small, poorly fitted or top-dose-only effect; inactive = no such curve, though single readings can be large or run the other way. A potency beside an inconclusive call is a rough fit, not a confirmed value.

Test: qHTS for Activators of Integrin-Mediated Alleviation for Muscular Dystrophy; note: nearly all actives have a fitted effect of over 60% in size;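 for activation: 100% = response of the positive control SU9516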
Settings: alpha7betagal myoblasts, beta-gal FDG fluorescence, 48 h; activation: at 38.3 µM (top of the series)
Summary of the method: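 alpha7betagal+/- myoblasts (passage 13, 250/well) treated 48 h at 37C with compounds at 1:260 dilution of DMSO stock. Lysed, then beta-galactosidase activity read as FDG fluorescence (ex 480/em 540) after 30 min, with pre-read for autofluorescence.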
Potency is the fitted concentration of half-maximal effect.

Structure (SMILES) | Potency | activation
COC(=O)C1OC(OC2CC[C@]3(C)C(CC[C@@]4(C)[C@@H]3CC=C3[C@@H]5CC(C)(C)CC[C@]5(C(=O)OC5OC(CO)C(O)C(O)C5O)CC[C@]34C)C2(C)C)C(O)C(O)C1O[C@H]1OCC(O)C(O)C1O (some centres undefined) | inactive | 
COc1ccccc1N(CCOc1ccccc1)S(=O)(=O)c1ccccc1 | inconclusive: 5.01 µM [activator, single point] | 
Clc1cc(Cl)c(OCCCCn2cncn2)c(Cl)c1 | inconclusive: 28.2 µM [activator, single point] | 
CCOc1ccc(-n2c(-c3ccccc3)c[n+]3c2CCC3)cc1 |  | inconclusive: -13.5% [activator]
O=C(O)c1ccc(-c2ccccn2)s1 | inactive | 
COc1ccc(C2NC(=S)NC(C)=C2C(=O)Nc2ccccn2)cc1 (centres undefined) | inactive | 
O=S(=O)(/N=C(/Nc1ccccn1)c1ccccc1)c1ccccc1 | inactive | 
COc1ccc(-n2c(COc3ccc(C)cc3)nnc2SCC(=O)O)cc1 | inconclusive: 2.82 µM [activator, single point] | 
C/C(=N\O)c1ncc(C(F)(F)F)cc1Cl | inconclusive: 3.16 µM [activator, partial curve, poor fit] | 
COc1cc(/C=N/n2nnnc2N)cc(OC)c1OC | inconclusive: 2.24 µM [activator, single point] | 
Cn1cc(C(=O)c2cccc(Cl)c2)cc1/C=N\O | inactive | 
CC(C)N1CCC(N2CCN(Cc3ccc(C#CC(C)(C)O)s3)CC2CCO)CC1 (centres undefined) | inconclusive: 3.16 µM [activator, single point] | 
COc1ccc(Nc2nc(Nc3ccc(OC)cc3)nc(-n3[nH]c(=O)c(C)c3C)n2)cc1 | inactive | 
COc1cccc(-c2c3c([nH]c(=O)c2C#N)CCc2cc(OC)ccc2-3)c1 | inconclusive: 6.31 µM [activator, partial curve, poor fit] | 
S=C(/N=c1/sccn1Cc1ccccc1)NC1CC1 | inconclusive: 5.01 µM [activator, single point] | 
CCOC(=O)c1c(-n2cnnn2)sc2c1CCCC2 | inactive | 
O=C(O)Cc1c(-c2ccccc2Cl)c2cc(Br)ccc2[nH]c1=O | inconclusive: 0.447 µM [activator, full curve, poor fit] | 
Cc1cc(N2CCC(C)CC2)nc2ccc(N3C(=O)CCC3=O)cc12 | inconclusive: 11.2 µM [activator, partial curve, poor fit] | 
COc1cc2c(cc1NC(=S)NC(=O)c1c(OC)cccc1OC)oc1ccccc12 | inactive | 
O=C(OCC(=O)N1CCCC1)c1ccco1 | inconclusive: 28.2 µM [activator, single point] | 
CC(=O)OCC(=O)C1(O)CCC2C3CCC4=CC(=O)CCC4(C)C3(F)C(O)CC21C (centres undefined) | inactive | 
CCCc1cc(=O)n2[nH]c(C)c(-c3ccccc3)c2n1 | inactive | 
O=c1oc2c(-c3ccc([N+](=O)[O-])cc3)cc(O)cc2s1 | inconclusive: 1 µM [activator, partial curve, poor fit] | 

One compound at a time, from the list above.
`O=c1oc2c(-c3ccc([N+](=O)[O-])cc3)cc(O)cc2s1` in the list: Potency: inconclusive: 1 µM [activator, partial curve, poor fit]
`CC(=O)OCC(=O)C1(O)CCC2C3CCC4=CC(=O)CCC4(C)C3(F)C(O)CC21C` (centres undefined) in the list: Potency: inactive

The listing continues.

Structure (SMILES) | Potency | activation
S=c1[nH]nc(COc2ccccc2)n1/N=C/c1ccc(Cl)cc1Cl | inconclusive: 1.12 µM [activator, full curve, poor fit] | 
O=C(Nc1scc(-c2ccccc2)c1C(=O)O)c1ccccc1F | inconclusive: 15.8 µM [activator, single point] | 
c1ccc(CN2c3ccccc3-c3nc4ccccc4n3C2c2ccccn2)cc1 (centres undefined) | inactive | 
NCCS(=O)(=O)NC1CCCCC1 | inconclusive: 10 µM [activator, partial curve, poor fit] | 
CCc1ccc(C(=O)Nc2cccc(-c3nn[nH]n3)c2)s1 | inconclusive: 5.01 µM [activator, single point] | 
CCOC(=O)C1CCN(C(=O)c2cccc(S(=O)(=O)NCc3ccccc3)c2)CC1 | inconclusive: 2 µM [activator, partial curve, poor fit] | 
Cc1nn(CC(=O)Nc2ccc(Cl)cc2)c(=O)c2cc(-c3ccccc3)nn12 | inconclusive: 5.01 µM [activator, single point] | 
CCC(C(=O)Nc1ccc2c(c1)OCCO2)n1nnc2ccccc2c1=O (centres undefined) | inactive | 
O=C(NNC(=O)c1cc([N+](=O)[O-])ccc1Cl)c1cccnc1 |  | inconclusive: -11.4% [activator]
O=C1COc2ccc(S(=O)(=O)N3CCCCCC3)cc2N1 | inactive | 
CCCc1cc(=O)n2[nH]c(-c3ccc(C)cc3)cc2n1 | inactive | 
Cc1ccccc1C(=O)NNC(=S)NC(=O)c1cccnc1 | inactive | 
COc1cc(/C=C/C(=O)Nc2cc(S(=O)(=O)N3CCOCC3)ccc2N2CCCC2)cc(OC)c1OC | inconclusive: 2 µM [activator, partial curve, poor fit] | 
O=C(CN1CCCCC1)NNc1nc(-c2ccccc2)c2cc(Cl)ccc2n1 | inactive | 
CCOC(=O)c1cnc(-n2nc(C)cc2C)nc1NNc1nc(C)cc(C)n1 | inactive | 
Cn1c(CCNC(=O)c2ccc(F)cc2)nc2ccccc21 | inactive | 
COc1ccc(C(=O)Nc2ccc(S(=O)(=O)N3CCOCC3)cc2)cc1[N+](=O)[O-] | inactive | 
CCOc1ccc(C(CC(=O)O)NC(=O)C(CC)c2ccccc2)cc1 (centres undefined) | inactive | 
CCc1cc(=O)oc2cc(OC(C)C(=O)NCCCn3ccnc3)ccc12 (centres undefined) | inconclusive: 28.2 µM [activator, single point] | 
C=CCN1C(=O)c2ccc(C(=O)N(C)CC(=O)Nc3ccccc3C(F)(F)F)cc2C1=O | inconclusive: 10 µM [activator, partial curve, poor fit] | 
O=C(COC(=O)c1cc(Cl)ccc1Cl)NC1CCCC1 | inconclusive: 4.47 µM [activator, full curve, poor fit] | 
CC(=O)c1sc(NC(=O)CCCc2nc3ccccc3c(=O)[nH]2)nc1-c1ccccc1 | inconclusive: 3.16 µM [activator, full curve, poor fit] | 
CC1CCCN(CCCNC(=O)C2CCC(CNS(=O)(=O)c3cccc4nsnc34)CC2)C1 (centres undefined) | inconclusive: 3.55 µM [activator, single point] | 

Structure (SMILES) | Potency | activation
Cc1ccc(OCCC(=O)OCC(=O)N2CCN(S(=O)(=O)c3ccc(Cl)cc3)CC2)cc1 | inactive | 
Cc1cc(NC(=O)COc2ccccc2)ccc1Cl | inconclusive: 2.82 µM [activator, partial curve, poor fit] | 
CC1CCCCC12NC(=O)N(CC(=O)NC1CCCc3ccccc31)C2=O (centres undefined) | inconclusive: 2.82 µM [activator, partial curve, poor fit] | 
C/C(=N\NC(N)=S)C1=CCC2C3CC[C@H]4CC(O)CC[C@]4(C)C3CC[C@]12C (some centres undefined) | inactive | 
CN(C)S(=O)(=O)c1cccc(NC(=O)NCCCl)c1 | inconclusive: 5.01 µM [activator, single point] | 
CCCc1c(C(=O)Nc2ccc(F)cc2F)cnn1-c1ccccc1 | inconclusive: 3.55 µM [activator, single point] | 
NC(=O)C1CCCN(CC(=O)Nc2cc(S(=O)(=O)N3CCOCC3)ccc2N2CCCC2)C1 (centres undefined) | inconclusive: 4.47 µM [activator, single point] | 
COc1cccc(NC(=O)CSc2nnc3c(n2)[nH]c2ccc(C)cc23)c1 | inconclusive: 0.316 µM [activator, full curve, poor fit] | 
CN(C)CCCNC(CC(=O)Nc1cccc([N+](=O)[O-])c1)C(=O)O (centres undefined) | inconclusive: 11.2 µM [activator, partial curve, poor fit] | 
CCN(C(=S)Nc1ccc(OC(F)F)cc1)C1CCCCC1 | inactive | 
CCCCC(=O)Nc1ccc(Br)cn1 | inactive | 
Cc1ccc(N(C)S(=O)(=O)c2ccc3c(c2)CC(C)N3C(=O)C2CC2)cc1 (centres undefined) | inconclusive: 3.55 µM [activator, single point] | 
Cc1ccccc1NC(=O)c1ccccc1NC(=O)c1cccs1 | inconclusive: 5.01 µM [activator, single point] | 
COc1ccc(C(CNC(=O)c2cccc(S(=O)(=O)N3CCOCC3)c2)N2CCCC2)cc1 (centres undefined) | inconclusive: 28.2 µM [activator, single point] | 
COc1ccc(N2CCN(C(=O)CSc3nnc4n3C(C)(C)Cc3ccccc3-4)CC2)cc1 | inactive | 
COCCN1CCn2c(nc3cc(Nc4nnc(C)c5ccccc45)ccc32)C1 | inconclusive: 0.501 µM [activator, full curve, poor fit] | 
COc1cc(OC)cc(C(=O)Nc2ccc(C(=O)c3ccncc3)cc2)c1 | inconclusive: 5.01 µM [activator, single point] | 
O=C(/C=C/c1ccccc1Cl)NCCc1ccc(F)cc1 | inconclusive: 28.2 µM [activator, single point] | 
O=C(CSc1ncn[nH]1)Nc1cc(S(=O)(=O)N2CCCC2)ccc1Cl | inconclusive: 11.2 µM [activator, partial curve, poor fit] | 
COc1ccc(-c2noc(CN3CCN(C(=O)c4cccs4)CC3)n2)c(OC)c1OC | inconclusive: 0.501 µM [activator, partial curve, poor fit] | 
COc1ccc(C2C(C(=O)N3CCN(c4ccccn4)CC3)CCC(=O)N2c2ccc(OC)cc2)cc1 (centres undefined) | inconclusive: 3.55 µM [activator, single point] | 
Cc1cccc(C)c1NC(=O)COC(=O)c1cc(=O)[nH]c2ccccc12 | inconclusive: 1 µM [activator, full curve, poor fit] | 
COc1ccc(/C=C2\SC(=S)N(CCC(=O)Nc3ccc(C(=O)O)cc3)C2=O)cc1OC | inconclusive: 10 µM [activator, partial curve, poor fit] | 
